# Laboratory results: PubChem BioAssay AID540256 (National Center for Advancing Translational Sciences (NCATS), 2011)
# In all, about 300,000 compounds went through this assay and about 3,700 (1.2%) were called active. The shares of active, inactive and inconclusive entries below differ from those in the screen. Calls come from the whole dose curve; tested in HEK293 cells. Where the call is inconclusive, the potency comes from a doubtful curve fit.
# Assay: qHTS for Inhibitors of binding or entry into cells for Lassa Virus; note: nearly all actives have a fitted effect of over 50% in size
# Settings: Lassa virus pseudotype entry inhibition, cell reporter; series mostly up to 37.9 µM
# Potency is the fitted concentration of half-maximal effect.
row,SMILES,Potency
1,Cc1ccc(NC(=O)CN2C(=O)C(c3ccc(C)cc3)=NC23CCCCCC3)cc1,"inconclusive: 17.8 µM [inhibitor, single point]"
2,CCc1ccc(NC(=O)c2cccc(N3CCCS3(=O)=O)c2)cc1,inactive
3,C/C(=N\OCC(=O)NCC(F)(F)F)c1cc2ccccc2o1,"inconclusive: 9.2 µM [activator, partial curve, poor fit]"
4,COc1ccccc1NC(=O)NNC(=O)c1ccncc1,inactive
5,Cc1cccc(N2C(=O)NC(=O)/C(=C\c3cc(C)n(-c4sc5c(c4C#N)CCCC5)c3C)C2=O)c1C,"inconclusive: 5.01 µM [inhibitor, partial curve]"
6,CCN(CC)CCNC(=O)c1ccc(NC(=O)Cc2ccccc2F)cc1,inactive
7,CCn1c(SCC(=O)O)nnc1-c1ccc(S(=O)(=O)N2CCCC2)cc1,"inconclusive: 3.16 µM [inhibitor, single point]"
8,CC(=O)Nc1ccc(S(=O)(=O)N2CCN(c3nc(NC4CCCC4)c4ccccc4n3)CC2)cc1,"inconclusive: 35.5 µM [inhibitor, single point]"
9,Cc1ccc2cc(CN(CCN3CCOCC3)Cc3nnnn3Cc3ccco3)c(=O)[nH]c2c1C,"inconclusive: 0.794 µM [activator, full curve, poor fit]"
10,CN(C)P(=O)(Nc1cccc2ccccc12)Nc1cccc2ccccc12,inactive
11,COC(=O)c1nn(-c2cccc(C)c2)c2nnc(Cc3ccccc3)c(=O)n12,"inconclusive: 3.55 µM [activator, partial curve]"
12,CCOc1nc(Nc2ccc(OC)c(Cl)c2)nc(OCC)n1,"inconclusive: 35.5 µM [inhibitor, single point]"
13,CC(=O)c1c(C)n(S(=O)(=O)c2ccc(Cl)cc2)c2ccc(NS(=O)(=O)c3ccc(Cl)cc3)cc12,"inconclusive: 1.58 µM [inhibitor, partial curve, poor fit]"
14,COc1cc(/C=C/C(=O)NCc2ccccn2)cc(OC)c1OC,"inconclusive: 29.1 µM [inhibitor, partial curve, poor fit]"
15,COc1ccc2c(c1)CCc1c(C(=O)Nc3ccn(Cc4ccc(C)cc4)n3)noc1-2,"inconclusive: 20.6 µM [inhibitor, single point]"
16,Cc1ccc(CNC(=O)CCSCc2cnn(-c3ccccc3)c2-n2cccc2)cc1,inactive
17,NC(=S)N/N=C/c1ccc(-c2cc(Cl)ccc2Cl)o1,"inconclusive: 7.3 µM [inhibitor, partial curve, poor fit]"
18,CCOC(=O)c1ccc(N=c2scc(C)n2CC)cc1,"inconclusive: 35.5 µM [inhibitor, single point]"
19,CN(C)c1ccc(C(=O)OCc2ccc(Br)cc2)cc1,"inconclusive: 7.94 µM [inhibitor, partial curve, poor fit]"
20,CC(C)CNC(=O)c1ccc(COc2ccc(Cl)cc2Cl)o1,active: 11.2 µM
21,Cc1cc(C(=O)COC(=O)/C=C/c2cccc(Br)c2)c(C)n1C,inactive
22,COCCCN=C1NN=C(c2cc(C)n(Cc3ccccc3Cl)c2C)CS1,"inconclusive: 35.5 µM [inhibitor, single point]"
23,CCOC(=O)c1c(-n2c(C)cc(C=C3C(=O)NC(=O)NC3=O)c2C)sc2c1CCCC2,"inconclusive: 14.6 µM [inhibitor, partial curve, poor fit]"

row,SMILES,Potency
1,Cc1nnn(C23CC4CC(CC(C4)C2)C3)n1,inactive
2,CCN(CC)C(=O)CSC(Nc1cccc(F)c1)=C(C#N)C#N,"inconclusive: 7.94 µM [inhibitor, full curve, poor fit]"
3,Cc1ccc(/C=N/NC(=O)CSc2nnc(-c3ccc(Cl)cc3)n2-c2ccc(Cl)cc2)o1,"inconclusive: 5.01 µM [inhibitor, single point]"
4,COc1ccc(Cc2nc(C(=O)Nc3ccc(Cl)cc3)cs2)cc1,"inconclusive: 29.1 µM [inhibitor, single point]"
5,CCN1CCSc2ccc(C(=O)NCc3ccc(F)cc3)cc21,inactive
6,COc1cc(C(C[N+](=O)[O-])c2c(C)[nH]c3ccccc23)cc(OC)c1OC (stereo not drawn),inactive
7,CCOC(=O)c1sc(NC(=S)NC(=O)c2ccccc2Cl)c(C(=O)OCC)c1C,"inconclusive: 2.24 µM [inhibitor, partial curve, poor fit]"
8,CCCc1nc2ccccc2c(C(=O)OCc2nnc(-c3cc(OC)c(OC)c(OC)c3)o2)c1CC,"inconclusive: 25.9 µM [inhibitor, single point]"
9,CC(CCc1ccccn1)(CCc1ccccn1)C(=O)c1ccccc1,"inconclusive: 20 µM [inhibitor, single point]"
10,O=C(Nc1ccc(N2CCOCC2)c(Cl)c1)c1cc(F)c(F)cc1Cl,inactive
11,CC(C)(C)c1ccc(C(=O)N2CCN(C(=O)C3CCCCC3)CC2)cc1,"inconclusive: 3.98 µM [inhibitor, partial curve, poor fit]"
12,Cc1cccc(/C(N)=N/OC(=O)c2ccc(F)cc2)c1,"inconclusive: 0.794 µM [activator, single point]"
13,COc1cccc(CNC(=O)CCC2CCCN(C(=O)c3cccc(Cl)c3)C2)c1 (stereo not drawn),"inconclusive: 35.5 µM [inhibitor, single point]"
14,c1ccc(-c2nc3c(ccc4ccccc43)[nH]2)nc1,"inconclusive: 0.316 µM [activator, partial curve, poor fit]"
15,Cc1ccc(S(=O)(=O)c2nc(-c3cccc(Br)c3)oc2N2CCCCCC2)cc1,inactive
16,Cc1ccc(C(=O)Nc2cc3ccccc3oc2=O)cc1,active: 2.82 µM
17,S=c1[nH]nc(-c2cccnc2)n1/N=C/C=C/c1ccccc1,"inconclusive: 0.58 µM [inhibitor, partial curve, poor fit]"
18,Cc1ccc(N2C(=O)CC(N(CCc3ccccc3)C(=S)Nc3ccc(N(C)C)cc3)C2=O)cc1 (stereo not drawn),"inconclusive: 3.16 µM [inhibitor, partial curve]"
19,O=C(CCl)N(Cc1ccccc1)c1ccccc1,"inconclusive: 29.1 µM [inhibitor, single point]"
20,CC(C)(C)NC(=O)c1cc(Cl)ccc1[N+](=O)[O-],inactive
21,COC(=O)CCCn1c(-c2ccc(C)cc2)c(C)n2c3c(=O)n(C)c(=O)n(C)c3nc12,"inconclusive: 7.08 µM [inhibitor, partial curve, poor fit]"
22,COCCOc1cc(-n2cccc2)c(Cl)cc1Cl,inactive
23,CCc1cccc(NC(=O)Cc2nc(-c3ccc(OC)cc3)no2)c1,inactive

row,SMILES,Potency
1,CCN1CCN(c2ccc(S(=O)(=O)N3CCCCC3)cc2NC(=O)/C=C/c2ccc(F)cc2)CC1,inactive
2,CC(C)(C)N(NS(=O)(=O)c1ccc(F)cc1)c1ccccc1,"inconclusive: 4.47 µM [activator, partial curve, poor fit]"
3,N=c1sccn1CC(=O)Nc1cc(Cl)ccc1Oc1ccccc1,"inconclusive: 25.1 µM [inhibitor, single point]"
4,COc1ccc(CC(=O)NCCS(=O)(=O)N2CCN(c3ccccc3OC)CC2)cc1,"inconclusive: 12.6 µM [inhibitor, partial curve]"
5,CCn1c2ccccc2c2nn(C)c(=N)nc21,"inconclusive: 29.1 µM [inhibitor, single point]"
6,Cc1onc(-c2ccccc2Cl)c1C(=O)Oc1ccccc1F,inactive
7,COC(=O)c1ccc(C(=O)Nc2cc(Cl)ccc2Cl)cc1NC(=O)c1ccccc1C,"inconclusive: 20.6 µM [inhibitor, single point]"
8,COc1ccc(OC)c(Nc2nc(=O)c3cccnc3s2)c1,"inconclusive: 22.4 µM [inhibitor, single point]"
9,CN(c1ccccc1C(=O)Nc1ccc(S(=O)(=O)N2CCOCC2)cc1)S(=O)(=O)c1ccccc1,"inconclusive: 1.84 µM [inhibitor, partial curve, poor fit]"
10,CCCN(CCC)S(=O)(=O)c1ccc(C(=O)Nc2nnc(-c3cc(OC)cc(OC)c3)o2)cc1,inactive
11,COc1ccc(NC(=O)CSc2oc(-c3ccco3)nc2S(=O)(=O)c2ccc(C)cc2)c(OC)c1,"inconclusive: 35.5 µM [activator, single point]"
12,CCN(CC)c1ccc(C=N/C(C#N)=C(\N)C#N)cc1,inactive
13,CN(CC(=O)Nc1ccccc1Br)C(=O)C(Cc1ccccc1)NC(=O)c1ccccc1 (stereo not drawn),"inconclusive: 6.31 µM [inhibitor, full curve, poor fit]"
14,N#C/C(=N\Nc1ccc(S(=O)(=O)N2CCCCC2)cc1)C(N)=S,inactive
15,COc1ccc(-c2cn3cc(Cl)ccc3n2)cc1OC,inactive
16,COc1cc(C(=O)NC(c2ccccc2Cl)c2cc(Cl)c3cccnc3c2O)cc(OC)c1OC (stereo not drawn),"inconclusive: 3.98 µM [inhibitor, partial curve, poor fit]"
17,COc1cccc(C2CCCN2Cc2nc(-c3sccc3C)oc2C)c1 (stereo not drawn),"inconclusive: 8.91 µM [inhibitor, partial curve, poor fit]"
18,COc1ccc(CC(=O)Nc2ccc(-c3nnc(-c4ccccc4)o3)cc2)cc1OC,inactive
19,CCOC(=O)N1CCN(C(=O)/C(=C/c2ccc(Br)cc2)NC(=O)c2ccc(OC)cc2)CC1,"inconclusive: 7.94 µM [inhibitor, partial curve, poor fit]"
20,O=[N+]([O-])c1ccc(Oc2ccc(F)cc2)c2ccncc12,inactive
21,Cc1cc(=O)n(Cc2c(F)cccc2Cl)c2c1c(C)nn2-c1cccc(F)c1,inactive
22,Clc1ccc(COn2c(-c3ccccc3)nc3ccccc32)cc1,"inconclusive: 6.51 µM [inhibitor, full curve, poor fit]"

# By substructure: those above containing a nitro group on carbon (3)
row,SMILES,Potency
6,COc1cc(C(C[N+](=O)[O-])c2c(C)[nH]c3ccccc23)cc(OC)c1OC (stereo not drawn),inactive
20,CC(C)(C)NC(=O)c1cc(Cl)ccc1[N+](=O)[O-],inactive
20,O=[N+]([O-])c1ccc(Oc2ccc(F)cc2)c2ccncc12,inactive
